{"source": "patent US12729225B2", "about": "“Non-canonical SWI/SNF complex and uses thereof” (Dana-Farber Cancer Institute, Inc., priority 2018, dated 2026)", "test_system": "mSWI/SNF complexes", "test": "mSWI/SNF complex purification with HA-tagged baits and mass spectrometry (peptide counts)", "design": "species or system human", "settings": "293_HA-BRD7 bait purification, mass spectrometry; for Total: total peptide count per identified protein; for Unique: unique peptide count per identified protein"}
{"molecule": "CCT2 (protein, UniProt P78371 2-535, looked up) T-complex protein 1 subunit …: ASLSLAPVNIFKAGADEERAETARLTSFIGAIAIGDLVKSTLGPKGMDKILLSSGRDASLMVTNDGATILKNIGVDNPAAKVLVDMSRVQDDEVGDGTTSVTVLAAELLREAESLIAKKIHPQTIIAGWREATKAAREALLSSAVDHGSDEVKFRQDLMNIAGTTLSSKLLTHHKDHFTKLAVEAVLRLKGSGNLEAIHIIKKLGGSLADSYLDEGFLLDKKIGVNQPKRIENAKILIANTGMDTDKIKIFGSRVRVDSTAKVAEIEHAEKEKMKEKVERILKHGINCFINRQLIYNYPEQLFGAAGVMAIEHADFAGVERLALVTGGEIASTFDHPELVKLGSCKLIEEVMIGEDKLIHFSGVALGEACTIVLRGATQQILDEAERSLHDALCVLAQTVKDSRTVYGGGCSEMLMAHAVTQLANRTPGKEAVAMESYAKALRMLPTIIADNAGYDSADLVAQLRAAHSEGNTTAGLDMREGTIGDMAILGITESFQVKRQVLLSAAEAAEVILRVDNIIKAAPRKRVPDHHPC", "values": [{"measurement": "Total", "value": 1}, {"measurement": "Unique", "value": 1}]}
{"molecule": "SSR3 (protein, UniProt Q9UNL2 1-185, looked up) Translocon-associated protein …: MAPKGSSKQQSEEDLLLQDFSRNLSAKSSALFFGNAFIVSAIPIWLYWRIWHMDLIQSAVLYSVMTLVSTYLVAFAYKNVKFVLKHKVAQKREDAVSKEVTRKLSEADNRKMSRKEKDERILWKKNEVADYEATTFSIFYNNTLFLVVVIVASFFILKNFNPTVNYILSISASSGLIALLSTGSK", "values": [{"measurement": "Total", "value": 1}, {"measurement": "Unique", "value": 1}]}
{"molecule": "AP2B1 (protein) TDSKYFTTNKKGEIFELKAELNNEKKEKRKEAVKKVIAAMTVGKDVSSLFPDVVNCMQTDNLELKKLVYLYLMNYAKSQPDMAIMAVNSFVKDCEDPNPLIRALAVRTMGCIRVDKITEYLCEPLRKCLKDEDPYVRKTAAVCVAKLHDINAQMVEDQGFLDSLRDLIADSNPMVVANAVAALSEISESHPNSNLLDLNPQNINKLLTALNECTEWGQIFILDCLSNYNPKDDREAQSICERVTPRLSHANSAVVLSAVKVLMKFLELLPKDSDYYNMLLKKLAPPLVTLLSGEPEVQYVALRNINLIVQKRPEILKQEIKVFFVKYNDPIYVKLEKLDIMIRLASQANIAQVLAELKEYATEVDVDFVRKAVRAIGRCAIKVEQSAERCVSTLLDLIQTKVNYVVQEAIVVIRDIFRKYPNKYESIIATLCENLDSLDEPDARAAMIWIVGEYAERIDNADELLESFLEGFHDESTQVQLTLLTAIVKLFLKKPSETQELVQQVLSLATQDSDNPDLRDRGYIYWRLLSTDPVTAKEVVLSEKPLISEETDLIEPTLLDELICHIGSLASVYHKPPNAFVEGSHGIHRKHLPIHHGSTDAGDSPVGTTTATNLEQPQVIPSQGDLLGDLLNLDLGPPVNVPQVSSMQMGAVDLLGGGLDSLVGQSFIPSSVPATFAPSPTPAVVSSGLNDLFELSTGIGMAPGGYVAPKAVWLPAVKAKGLEISGTFTHRQGHIYMEMNFTNKALQHMTDFAIQFNKNSFGVIPSTPLAIHTPLMPNQSIDVSLPLNTLGPVMKMEPLNNLQVAVKNNIDVFYFSCLIPLNVLFVEDGKMERQVFLATWKDIPNENELQFQIKECHLNADTVSSKLQNNNVYTIAKRNVEGQDMLYQSLKLTNGIWILAELRIQPGNPNYTLSLKCRAPEVSQYIYQVYDSILKN", "values": [{"measurement": "Total", "value": 1}, {"measurement": "Unique", "value": 1}]}
{"molecule": "PC (protein, UniProt P11498 21-1178, looked up) Pyruvate carboxylase, …: TAPAASPNVRRLEYKPIKKVMVANRGEIAIRVFRACTELGIRTVAIYSEQDTGQMHRQKADEAYLIGRGLAPVQAYLHIPDIIKVAKENNVDAVHPGYGFLSERADFAQACQDAGVRFIGPSPEVVRKMGDKVEARAIAIAAGVPVVPGTDAPITSLHEAHEFSNTYGFPIIFKAAYGGGGRGMRVVHSYEELEENYTRAYSEALAAFGNGALFVEKFIEKPRHIEVQILGDQYGNILHLYERDCSIQRRHQKVVEIAPAAHLDPQLRTRLTSDSVKLAKQVGYENAGTVEFLVDRHGKHYFIEVNSRLQVEHTVTEEITDVDLVHAQIHVAEGRSLPDLGLRQENIRINGCAIQCRVTTEDPARSFQPDTGRIEVFRSGEGMGIRLDNASAFQGAVISPHYDSLLVKVIAHGKDHPTAATKMSRALAEFRVRGVKTNIAFLQNVLNNQQFLAGTVDTQFIDENPELFQLRPAQNRAQKLLHYLGHVMVNGPTTPIPVKASPSPTDPVVPAVPIGPPPAGFRDILLREGPEGFARAVRNHPGLLLMDTTFRDAHQSLLATRVRTHDLKKIAPYVAHNFSKLFSMENWGGATFDVAMRFLYECPWRRLQELRELIPNIPFQMLLRGANAVGYTNYPDNVVFKFCEVAKENGMDVFRVFDSLNYLPNMLLGMEAAGSAGGVVEAAISYTGDVADPSRTKYSLQYYMGLAEELVRAGTHILCIKDMAGLLKPTACTMLVSSLRDRFPDLPLHIHTHDTSGAGVAAMLACAQAGADVVDVAADSMSGMTSQPSMGALVACTRGTPLDTEVPMERVFDYSEYWEGARGLYAAFDCTATMKSGNSDVYENEIPGGQYTNLHFQAHSMGLGSKFKEVKKAYVEANQMLGDLIKVTPSSKIVGDLAQFMVQNGLSRAEAEAQAEELSFPRSVVEFLQGYIGVPHGGFPEPFRSKVLKDLPRVEGRPGASLPPLDLQALEKELVDRHGEEVTPEDVLSAAMYPDVFAHFKDFTATFGPLDSLNTRLFLQGPKIAEEFEVELERGKTLHIKALAVSDLNRAGQRQVFFELNGQLRSILVKDTQAMKEMHFHPKALKDVKGQIGAPMPGKVIDIKVVAGAKVAKGQPLCVLSAMKMETVVTSPMEGTVRKVHVTKDMTLEGDDLILEIE", "values": [{"measurement": "Total", "value": 1}, {"measurement": "Unique", "value": 1}]}
{"molecule": "WDR75 (protein, UniProt Q8IWA0 1-830, looked up) WD repeat-containing protein …: MVEEENIRVVRCGGSELNFRRAVFSADSKYIFCVSGDFVKVYSTVTEECVHILHGHRNLVTGIQLNPNNHLQLYSCSLDGTIKLWDYIDGILIKTFIVGCKLHALFTLAQAEDSVFVIVNKEKPDIFQLVSVKLPKSSSQEVEAKELSFVLDYINQSPKCIAFGNEGVYVAAVREFYLSVYFFKKKTTSRFTLSSSRNKKHAKNNFTCVACHPTEDCIASGHMDGKIRLWRNFYDDKKYTYTCLHWHHDMVMDLAFSVTGTSLLSGGRESVLVEWRDATEKNKEFLPRLGATIEHISVSPAGDLFCTSHSDNKIIIIHRNLEASAVIQGLVKDRSIFTGLMIDPRTKALVLNGKPGHLQFYSLQSDKQLYNLDIIQQEYINDYGLIQIELTKAAFGCFGNWLATVEQRQEKETELELQMKLWMYNKKTQGFILNTKINMPHEDCITALCFCNAEKSEQPTLVTASKDGYFKVWILTDDSDIYKKAVGWTCDFVGSYHKYQATNCCFSEDGSLLAVSFEEIVTIWDSVTWELKCTFCQRAGKIRHLCFGRLTCSKYLLGATENGILCCWNLLSCALEWNAKLNVRVMEPDPNSENIAAISQSSVGSDLFVFKPSEPRPLYIQKGISREKVQWGVFVPRDVPESFTSEAYQWLNRSQFYFLTKSQSLLTFSTKSPEEKLTPTSKQLLAEESLPTTPFYFILGKHRQQQDEKLNETLENELVQLPLTENIPAISELLHTPAHVLPSAAFLCSMFVNSLLLSKETKSAKEIPEDVDMEEEKESEDSDEENDFTEKVQDTSNTGLGEDIIHQLSKSEEKELRKFRKIDYSWIAAL", "values": [{"measurement": "Total", "value": 1}, {"measurement": "Unique", "value": 1}]}
{"molecule": "SERBP1 (protein, UniProt Q8NC51 2-408, looked up) SERPINE1 mRNA-binding protein …: PGHLQEGFGCVVTNRFDQLFDDESDPFEVLKAAENKKKEAGGGGVGGPGAKSAAQAAAQTNSNAAGKQLRKESQKDRKNPLPPSVGVVDKKEETQPPVALKKEGIRRVGRRPDQQLQGEGKIIDRRPERRPPRERRFEKPLEEKGEGGEFSVDRPIIDRPIRGRGGLGRGRGGRGRGMGRGDGFDSRGKREFDRHSGSDRSSFSHYSGLKHEDKRGGSGSHNWGTVKDELTESPKYIQKQISYNYSDLDQSNVTEETPEGEEHHPVADTENKENEVEEVKEEGPKEMTLDEWKAIQNKDRAKVEFNIRKPNEGADGQWKKGFVLHKSKSEEAHAEDSVMDHHFRKPANDITSQLEINFGDLGRPGRGGRGGRGGRGRGGRPNRGSRTDKSSASAPDVDDPEAFPALA", "values": [{"measurement": "Total", "value": 1}, {"measurement": "Unique", "value": 1}]}
{"molecule": "IMP4 (protein, UniProt Q96G21 1-291, looked up) U3 small nucleolar …: MLRREARLRREYLYRKAREEAQRSAQERKERLRRALEENRLIPTELRREALALQGSLEFDDAGGEGVTSHVDDEYRWAGVEDPKVMITTSRDPSSRLKMFAKELKLVFPGAQRMNRGRHEVGALVRACKANGVTDLLVVHEHRGTPVGLIVSHLPFGPTAYFTLCNVVMRHDIPDLGTMSEAKPHLITHGFSSRLGKRVSDILRYLFPVPKDDSHRVITFANQDDYISFRHHVYKKTDHRNVELTEVGPRFELKLYMIRLGTLEQEATADVEWRWHPYTNTARKRVFLSTE", "values": [{"measurement": "Total", "value": 1}, {"measurement": "Unique", "value": 1}]}
{"molecule": "UQCRFS1 (protein, UniProt P47985 79-274, looked up) Cytochrome b-c1 complex …: SHTDIKVPDFSEYRRLEVLDSTKSSRESSEARKGFSYLVTGVTTVGVAYAAKNAVTQFVSSMSASADVLALAKIEIKLSDIPEGKNMAFKWRGKPLFVRHRTQKEIEQEAAVELSQLRDPQHDLDRVKKPEWVILIGVCTHLGCVPIANAGDFGGYYCPCHGSHYDASGRIRLGPAPLNLEVPTYEFTSDDMVIVG", "values": [{"measurement": "Total", "value": 1}, {"measurement": "Unique", "value": 1}]}
{"molecule": "NUP62 (protein) SGFNFGGTGAPTGGFTFGTAKTATTTPATGFSFSTSGTGGFNFGAPFQPATSTPSTGLFSLATQTPATQTTGFTFGTATLASGGTGFSLGIGASKLNLSNTAATPAMANPSGFGLGSSNLTNAISSTVTSSQGTAPTGFVFGPSTTSVAPATTSGGFSFTGGSTAQPSGFNIGSAGNSAQPTAPATLPFTPATPAATTAGATQPAAPTPTATITSTGPSLFASIATAPTSSATTGLSLCTPVTTAGAPTAGTQGFSLKAPGAASGTSTTTSTAATATATTTSSSSTTGFALNLKPLAPAGIPSNTAAAVTAPPGPGAAAGAAASSAMTYAQLESLINKWSLELEDQERHFLQQATQVNAWDRTLIENGEKITSLHREVEKVKLDQKRLDQELDFILSQQKELEDLLSPLEELVKEQSGTIYLQHADEEREKTYKLAENIDAQLKRMAQDLKDIIEHLNTSGAPADTSDPLQQICKILNAHMDSLQWIDQNSALLQRKVEEVTKVCEGRRKEQERSFRITFD", "values": [{"measurement": "Total", "value": 1}, {"measurement": "Unique", "value": 1}]}
{"molecule": "PREB (protein, UniProt Q9HCU5 1-417, looked up) Guanine nucleotide-exchange …: MGRRRAPELYRAPFPLYALQVDPSTGLLIAAGGGGAAKTGIKNGVHFLQLELINGRLSASLLHSHDTETRATMNLALAGDILAAGQDAHCQLLRFQAHQQQGNKAEKAGSKEQGPRQRKGAAPAEKKCGAETQHEGLELRVENLQAVQTDFSSDPLQKVVCFNHDNTLLATGGTDGYVRVWKVPSLEKVLEFKAHEGEIEDLALGPDGKLVTVGRDLKASVWQKDQLVTQLHWQENGPTFSSTPYRYQACRFGQVPDQPAGLRLFTVQIPHKRLRQPPPCYLTAWDGSNFLPLRTKSCGHEVVSCLDVSESGTFLGLGTVTGSVAIYIAFSLQCLYYVREAHGIVVTDVAFLPEKGRGPELLGSHETALFSVAVDSRCQLHLLPSRRSVPVWLLLLLCVGLIIVTILLLQSAFPGFL", "values": [{"measurement": "Total", "value": 1}, {"measurement": "Unique", "value": 1}]}
